Test results as given in patent publication US20080267948A1, “Croos-B Structure Binding Compounds” (priority 2005, published 2008).
Structures can show the parent of a compound that is named as a salt. Some of these results come from one statement about several compounds together.

Chains of the proteins cited; added tags and fusions are not shown. Residues count along the entry.
UniProt P68871, 2-147 limits assumed: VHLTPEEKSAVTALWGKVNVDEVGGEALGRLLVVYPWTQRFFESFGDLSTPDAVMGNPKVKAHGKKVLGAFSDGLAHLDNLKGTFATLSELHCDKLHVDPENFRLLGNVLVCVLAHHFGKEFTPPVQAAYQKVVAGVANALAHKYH
UniProt P69905, 2-142 limits assumed: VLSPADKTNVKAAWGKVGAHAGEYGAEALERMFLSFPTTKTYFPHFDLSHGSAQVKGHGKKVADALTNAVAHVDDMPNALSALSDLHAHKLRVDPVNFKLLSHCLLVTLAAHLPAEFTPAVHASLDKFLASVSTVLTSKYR

Biological target: T1, Hb-AGE (glucose-6-phosphate modified human haemoglobin) (Homo sapiens, UniProt P68871+P69905)
T1 construct: purchased Sigma-Aldrich H7379
Test: ELISA binding of tPA to immobilized Hb-AGE, compounds co-incubated with tPA
Details: 0.5 nM tPA, tenfold diluted 5 mg/ml compound stock, 10% DMSO, 1.25 μg/ml Hb-AGE coat, tPA without compound = 100%
Method: The small compound library is depicted in Tables 4-5. […] Binding experiments were performed in single wells per compound, in a duplicate experiment. Binding data obtained with this duplicate experiment was averaged.
• 1. […] Coat buffer in control wells. • 2. wash three times with wash buffer • 3. Block all wells with 300 μl 0.5*recommended concentration Roche blocking reagent for 30 minutes at room temperature, with agitation • 4. wash twice • 5. […] Incubate for 30 minutes at room temperature, with agitation • 7. wash five times with TBS/0.1% Tween20 • 8. […] Incubate for 30 minutes at room temperature, with agitation • 10. wash five times with TBS/0.1% Tween20 • 11. Fill wells with 3000× diluted horse raddish peroxidase-labeled polyclonal rabbit anti-mouse antibody (RAMPO, DAKOCytomation) • 12. Incubate for 20 minutes at room temperature, with agitation • 13. Wash five times with TBS/0.1% Tween20 • 14. Wash twice with PBS • 15. Stain with 100 μl TMB, stop with 50 μl 10% H2SO4 • 16. Read absorbance at 450 nm

Compound | tPA binding to Hb-AGE, when co-incubated with tPA, compared to buffer
COc1cc2c(cc1O)C[C@H]1c3c(cc(OC)c(O)c3-2)CCN1C [compound 202, Isoboldine] | (binding > 100%
O=c1oc2c(O)c(O)cc3c(=O)oc4c(O)c(O)cc1c4c23 [compound 117, Ellagic acid hydrate] | (binding > 100%
COc1cc(/C=C/C(=O)N2CCCCC2=O)cc(OC)c1OC [compound 163] | (binding < 50%
Cc1cc(O)c2c(c1)C(=O)c1cc(O)cc(O)c1C2=O [compound 63, Emodin] | (binding < 50%
C[C@H]1[C@H]2CC[C@H]3[C@@H]4CC=C5C[C@@H](N(C)C)CC[C@]5(C)[C@H]4CC[C@]23CN1C [compound 223, Conessine [546-06-5]] | (binding < 50%
C[C@H]1[C@H](C)CC[C@]2(C(=O)O)CC[C@]3(C)C(=CC[C@@H]4[C@@]5(C)CC[C@H](O)C(C)(C)[C@@H]5CC[C@]43C)[C@H]12 [compound 80] | (binding < 50%
C[C@H]1[C@H](C)CC[C@]2(C(=O)O)CC[C@]3(C)C(=CCC4[C@@]5(C)C[C@@H](O)[C@H](O)[C@@](C)(CO)[C@@H]5CC[C@]43C)[C@H]12 (some centres unmarked) [compound 177, Asiatic acis] | (binding < 50%
COc1cc2cc(Oc3ccc4ccc(=O)oc4c3)c(=O)oc2cc1O [compound 43] | (binding < 50%
CCCCCCCCCCCC1=C(O)C(=O)C=C(O)C1=O [compound 153, Embelin [550-24-3] (2,5-Dihydroxy-3-undecyl-p-benzoquinone)] | (binding < 50%
C[C@H](C(=O)O)c1cccc(C(=O)c2ccccc2)c1 [compound 225, (S)-(+)-ketoprofen] | (binding > 100%
COc1c(O)cc2oc3cc(O)c(CC=C(C)C)c(O)c3c(=O)c2c1CC=C(C)C [compound 160] | (binding < 50%
Br.CC(=O)N1C=C(C2CCCCN2)CCC1 (centres unmarked) [compound 217, Ammophedrine HBr] | (binding < 50%
CC1(C)[C@@H](O)CC[C@]2(C)C3C(=O)C=C4[C@@H]5C[C@@](C)(C(=O)O)CC[C@]5(C)CC[C@@]4(C)[C@]3(C)CC[C@@H]12 (some centres unmarked) [compound 99] | (binding < 50%
OC[C@@H]1CCCN2CCCC[C@H]12 [compound 24, Lupinine] | (binding < 50%
Cn1ccc(O)c(C#N)c1=O [compound 51] | (binding > 100%
C=C(CO)C1Cc2c(ccc3c(=O)c4c(oc23)COc2cc(OC)c(OC)cc2-4)O1 (centres unmarked) [compound 49] | (binding < 50%
NCCC(=O)N[C@@H](Cc1c[nH]cn1)C(=O)O [compound 119, L-Carnosine] | (binding < 50%
Cc1cc2nc3c(=O)[nH]c(=O)nc-3n(CC(O)C(O)C(O)CO)c2cc1C (centres unmarked) [compound 18] | (binding < 50%
CC1CCC2[C@](C)(CO)C(O)CC[C@]2(C)C12CCC(CO)(CCO)O2 (some centres unmarked) [compound 208, Lagochiline] | (binding < 50%

Compound | tPA binding to Hb-AGE, when co-incubated with tPA, compared to buffer
CCC12CCCN3CCC4(c5ccc(OC)c(O)c5N(C(=O)O)C4CC1)C32 (centres unmarked) [compound 20] | (binding < 50%
Cc1c(C(=O)O)c(O)cc2c1C(=O)c1c(O)c([C@H]3O[C@H](CO)[C@@H](O)[C@H](O)[C@H]3O)c(O)c(O)c1C2=O [compound 19] | (binding < 50%
CC[C@@H]1OC(=O)[C@@H](C)[C@H](O[C@H]2C[C@@](C)(OC)[C@@H](O)[C@H](C)O2)C(C)[C@H](O[C@H]2O[C@@H](C)C[C@@H](N(C)C)[C@@H]2O)[C@@](C)(O)C[C@H](C)C(=O)[C@@H](C)[C@H](O)[C@@]1(C)O (some centres unmarked) [compound 92] | (binding < 50%
COc1ccc2c(c1OC)C(Cc1ccccc1)N1CCc3cc4c(cc3C1=C2)OCO4 (centres unmarked) [compound 211, berberine derivative] | (binding > 100%
C=C[C@H]1C[N@]2CC[C@H]1CC2c1[nH]c2ccccc2c1CCO (some centres unmarked) [compound 179, Cinchonamine] | (binding < 50%
CN1C(=O)CC[C@H]1c1cccnc1 [compound 127, (−)-Catinine] | (binding < 50%
CC(Cc1ccc(O)c(O)c1)C(C)Cc1ccc(O)c(O)c1 (centres unmarked) [compound 72] | (binding > 100%
Cc1ccc(C(=O)[C@@H]2[C@H]3C4COC(O4)C(=O)[C@@H]3[C@H]3C=Cc4ccccc4N32)cc1 (some centres unmarked) [compound 15] | (binding < 50%
CC1(C)CC[C@]2(C(=O)O)CC[C@]3(C)C(=CCC4[C@@]5(C)CC[C@H](O)C(C)(C)C5[C@H](O)C[C@]43C)C2C1 (some centres unmarked) [compound 222, Sumaresinolic acid [559-64-8] (3b-6b-Dihydroxy olean-12-en-28-oice acid)] | (binding < 50%
OC1CCC2Cc3ccccc3N=C12 (centres unmarked) [compound 36] | (binding < 50%
COc1ccc2c(c1OC)C(Cc1ccccc1)N1CCc3cc4c(cc3C1C2)OCO4 (centres unmarked) [compound 212, berberine derivative] | (binding > 100%
O=c1cc(CO)occ1O [compound 26] | (binding < 50%
COc1ccc(CC2c3cc(OC)c(OC)cc3CCN2C)cc1OC (centres unmarked) [compound 32] | (binding < 50%
O=C1C=C2CC3(O)COc4c(ccc(O)c4O)C3=C2C=C1O (centres unmarked) [compound 152, Hematein] | (binding > 100%
CCCN1C[C@H](CSC)C[C@@H]2c3cccc4[nH]cc(c34)C[C@H]21 [compound 187, Pergolide mesylate] | (binding > 100%
COc1cc2ccc(=O)oc2cc1O [compound 79] | (binding > 100%
CN1CCc2cccc3c2C1Cc1ccc(O)c(O)c1-3 (centres unmarked) [compound 85] | (binding > 100%
COc1cc2c(cc1OC)-c1c(O)c(OC)cc3c1[C@H](C2)N(C)CC3 [compound 201, Thaliporphine, thalicmidine] | (binding < 50%
Cc1ccc(CC(Cc2nc3ccccc3[nH]2)c2nc3ccccc3[nH]2)cc1 (centres unmarked) [compound 4] | (binding < 50%
